These are yes or no findings as the source states them, for the method shown. In cells and extracts the contact can be indirect. These calls come from enrichment with a bait or labelling near it, and not all partners need be listed.
Molecular target: FLAG-TRIM6 (tripartite motif-containing protein 6) (human) (UniProt Q9C030)
Test: affinity purification with mass spectrometry; FLAG-TRIM6 expressed in HEK293T; RIPA extracts pre-cleared with IgG and protein A/G beads, incubated with anti-FLAG beads overnight at 4°C, eluted with FLAG peptide; SDS-PAGE bands analysed by LC/MS

By UniProt entry, the sequences of proteins in these tests, tags left out.
UniProt Q9C030: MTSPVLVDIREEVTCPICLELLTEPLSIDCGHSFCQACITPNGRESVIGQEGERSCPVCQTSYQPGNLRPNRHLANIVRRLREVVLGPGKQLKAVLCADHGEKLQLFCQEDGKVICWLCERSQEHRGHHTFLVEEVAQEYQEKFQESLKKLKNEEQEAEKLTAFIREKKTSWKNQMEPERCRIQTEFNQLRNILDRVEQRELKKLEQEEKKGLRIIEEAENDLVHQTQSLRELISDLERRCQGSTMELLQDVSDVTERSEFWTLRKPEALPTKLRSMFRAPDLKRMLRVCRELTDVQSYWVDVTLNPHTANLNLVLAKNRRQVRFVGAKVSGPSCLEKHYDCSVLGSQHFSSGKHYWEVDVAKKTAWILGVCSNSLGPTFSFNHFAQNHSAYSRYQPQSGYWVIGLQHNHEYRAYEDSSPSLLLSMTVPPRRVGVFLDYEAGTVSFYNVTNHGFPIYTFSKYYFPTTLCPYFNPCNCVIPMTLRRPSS

B1: TSC1 (tuberous sclerosis protein 1), endogenous in HEK293T (protein, UniProt Q92574 1-1164)
chain: MAQQANVGELLAMLDSPMLGVRDDVTAVFKENLNSDRGPMLVNTLVDYYLETSSQPALHILTTLQEPHDKHLLDRINEYVGKAATRLSILSLLGHVIRLQPSWKHKLSQAPLLPSLLKCLKMDTDVVVLTTGVLVLITMLPMIPQSGKQHLLDFFDIFGRLSSWCLKKPGHVAEVYLVHLHASVYALFHRLYGMYPCNFVSFLRSHYSMKENLETFEEVVKPMMEHVRIHPELVTGSKDHELDPRRWKRLETHDVVIECAKISLDPTEASYEDGYSVSHQISARFPHRSADVTTSPYADTQNSYGCATSTPYSTSRLMLLNMPGQLPQTLSSPSTRLITEPPQATLWSPSMVCGMTTPPTSPGNVPPDLSHPYSKVFGTTAGGKGTPLGTPATSPPPAPLCHSDDYVHISLPQATVTPPRKEERMDSARPCLHRQHHLLNDRGSEEPPGSKGSVTLSDLPGFLGDLASEEDSIEKDKEEAAISRELSEITTAEAEPVVPRGGFDSPFYRDSLPGSQRKTHSAASSSQGASVNPEPLHSSLDKLGPDTPKQAFTPIDLPCGSADESPAGDRECQTSLETSIFTPSPCKIPPPTRVGFGSGQPPPYDHLFEVALPKTAHHFVIRKTEELLKKAKGNTEEDGVPSTSPMEVLDRLIQQGADAHSKELNKLPLPSKSVDWTHFGGSPPSDEIRTLRDQLLLLHNQLLYERFKRQQHALRNRRLLRKVIKAAALEEHNAAMKDQLKLQEKDIQMWKVSLQKEQARYNQLQEQRDTMVTKLHSQIRQLQHDREEFYNQSQELQTKLEDCRNMIAELRIELKKANNKVCHTELLLSQVSQKLSNSESVQQQMEFLNRQLLVLGEVNELYLEQLQNKHSDTTKEVEMMKAAYRKELEKNRSHVLQQTQRLDTSQKRILELESHLAKKDHLLLEQKKYLEDVKLQARGQLQAAESRYEAQKRITQVFELEILDLYGRLEKDGLLKKLEEEKAEAAEAAEERLDCCNDGCSDSMVGHNEEASGHNGETKTPRPSSARGSSGSRGGGGSSSSSSELSTPEKPPHQRAGPFSSRWETTMGEASASIPTTVGSLPSSKSFLGMKARELFRNKSESQCDEDGMTSSLSESLKTELGKDLGVEAKIPLNLDGPHPSPPTPDSVGQLHIMDYNETHHEHS
**Q.** B1 was tested. Which binding did it give?
**A.** binds

Source: paper PMC7901959
